Measured data: PubChem BioAssay AID1259425 (University of Nebraska Medical Center, 2018)
Purpose: 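Compare each knockdown with KSR1 silencing using changes in marker transcripts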 (primary screen). System: HCT116 human colon cancer cells. Knock-down reagent: siRNA pool against human genes, 50 nM siRNA. Read-out: 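mRNA of six signature genes measured together by branched-DNA assay after 50 nM siRNA pool, blank removed, divided by geometric mean of two housekeeping genes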. Scale: BNIP3L mRNA: higher = more BNIP3L transcript after knockdown.
The deposit covers about 14,000 reagents; this is an unselected part. Further read-outs or replicates are left out here. Not stated in the record: the time to read-out.

With knock-down of ANGPTL8 (angiopoietin like 8), the record shows BNIP3L mRNA, set 1 = 0.199.
Knock-down of PSMC3IP (PSMC3 interacting protein) gave: BNIP3L mRNA, set 1 = 0.13.
RPL4 (ribosomal protein L4) showed BNIP3L mRNA, set 1 = 0.329.
Knock-down of MEPE (matrix extracellular phosphoglycoprotein) came out at: BNIP3L mRNA, set 1 = 0.0998.
Silencing of MRGPRX4 (MAS related GPR family member X4) resulted in: BNIP3L mRNA, set 1 = 0.0988.
Silencing of TKTL1 (transketolase like 1) resulted in: BNIP3L mRNA, set 1 = 0.0984.
Silencing of CNPY2 (canopy FGF signaling regulator 2) resulted in: BNIP3L mRNA, set 1 = 0.104.
After knock-down of MAPRE1 (microtubule associated protein RP/EB family member 1), the record shows BNIP3L mRNA, set 1 = 0.104.
PHKA1 (phosphorylase kinase regulatory subunit alpha 1) scored BNIP3L mRNA, set 1 = 0.0821.
Silencing of IPO5 (importin 5) gave: BNIP3L mRNA, set 1 = 0.053.
After knock-down of TMEM255A (transmembrane protein 255A), the screen gave BNIP3L mRNA, set 1 = 0.0813.
COX7A2P2 (cytochrome c oxidase subunit 7A2 pseudogene 2) gave BNIP3L mRNA, set 1 = 0.114.

Look-ups from the entries so far:
RPL4 (ribosomal protein L4), BNIP3L mRNA, set 1: 0.329
Under “BNIP3L mRNA, set 1”, IPO5 (importin 5) shows 0.053

The results go on:
Knock-down of CCT6B (chaperonin containing TCP1 subunit 6B) resulted in: BNIP3L mRNA, set 1 = 0.151.
Knock-down of GLI2 (GLI family zinc finger 2) came out at: BNIP3L mRNA, set 1 = 0.106.
Silencing of FGF20 (fibroblast growth factor 20) resulted in: BNIP3L mRNA, set 1 = 0.0567.
After knock-down of C8orf44 (chromosome 8 putative open reading frame 44), the screen gave BNIP3L mRNA, set 1 = 0.0901.
Against RTEL1 (regulator of telomere elongation helicase 1) the deposit lists BNIP3L mRNA, set 1 = 0.134.
After knock-down of ABCA3 (ATP binding cassette subfamily A member 3), the record shows BNIP3L mRNA, set 1 = 0.129.
Against PPIF (peptidylprolyl isomerase F) the deposit lists BNIP3L mRNA, set 1 = 0.0929.
Against ATAD5 (ATPase family AAA domain containing 5), the entry reads BNIP3L mRNA, set 1 = 0.0969.
With knock-down of UCP3 (uncoupling protein 3) the results were BNIP3L mRNA, set 1 = 0.233.
Knock-down of CCR9 (C-C motif chemokine receptor 9) resulted in: BNIP3L mRNA, set 1 = 0.123.
Against MMP13 (matrix metallopeptidase 13) the deposit lists BNIP3L mRNA, set 1 = 0.107.
Knock-down of CCDC69 (coiled-coil domain containing 69) gave: BNIP3L mRNA, set 1 = 0.0696.
Against BBS1 (Bardet-Biedl syndrome 1), the entry reads BNIP3L mRNA, set 1 = 0.109.
For SIL1 (SIL1 nucleotide exchange factor) the deposit lists BNIP3L mRNA, set 1 = 0.0722.
With knock-down of PDCD7 (programmed cell death 7) the results were BNIP3L mRNA, set 1 = 0.0393.
After knock-down of BICD1 (BICD cargo adaptor 1) the results were BNIP3L mRNA, set 1 = 0.13.
